# Hit rate of the full screen: of about 580,000 compounds, about 6,100 (1.1%) were called active. The inconclusive results got no clear call from the source; some entries with a clear call stand among them for comparison. Calls follow the shape of the dose curve; as a rule, active = well fitted inhibition curve with a large enough effect; inconclusive = small, poorly fitted or top-dose-only effect, or another doubt; inactive = no such curve, though single readings can be large or run the other way. Where the call is inconclusive, the potency comes from a doubtful curve fit.
# Sequences of proteins named here, by UniProt entry; tags and fusion partners are left off.
# UniProt P18054, whole entry, looked up: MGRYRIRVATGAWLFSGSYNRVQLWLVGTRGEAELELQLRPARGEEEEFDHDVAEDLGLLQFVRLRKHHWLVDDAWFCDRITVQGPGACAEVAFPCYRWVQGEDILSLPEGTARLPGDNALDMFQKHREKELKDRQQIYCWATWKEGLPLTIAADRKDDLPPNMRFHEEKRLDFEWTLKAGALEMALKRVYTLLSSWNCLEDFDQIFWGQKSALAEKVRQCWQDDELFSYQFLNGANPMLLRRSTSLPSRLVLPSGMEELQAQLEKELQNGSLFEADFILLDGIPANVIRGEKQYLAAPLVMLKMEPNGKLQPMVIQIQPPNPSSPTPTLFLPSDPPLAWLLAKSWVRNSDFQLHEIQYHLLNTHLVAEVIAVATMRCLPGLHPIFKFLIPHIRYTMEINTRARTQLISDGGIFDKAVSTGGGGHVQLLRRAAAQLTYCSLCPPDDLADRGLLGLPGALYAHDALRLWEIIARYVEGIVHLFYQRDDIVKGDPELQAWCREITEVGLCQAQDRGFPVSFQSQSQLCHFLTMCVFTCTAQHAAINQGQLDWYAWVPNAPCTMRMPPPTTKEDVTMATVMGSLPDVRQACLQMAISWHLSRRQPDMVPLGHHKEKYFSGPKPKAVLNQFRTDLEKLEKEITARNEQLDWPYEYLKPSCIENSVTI
# Biological target: Polyunsaturated fatty acid lipoxygenase ALOX12 (Homo sapiens) (UniProt P18054)
# Experiment: Primary qHTS assay for inhibitors of human arachidonate 12S-lipoxygenase (ALOX12): Round 2
# Conditions: purified 12hLO, xylenol orange hydroperoxide absorbance; activity change, negative = inhibition: at 108 µM (top of the series) unless noted
# Method in brief: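 Purified human 12hLO (150 nM final) in 25 mM Hepes, 0.01% Triton X-100, pH 7.0 was preincubated 15 min at room temperature with compound. Then 40 uM arachidonic acid was added, 30 min. Hydroperoxide was read by Fe-XO absorbance ratio 573/405 nm.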
# % is scaled to controls: 0 for no effect and ±100 for the full control effect; potency is read from the fitted curve at half-maximal effect.
Structure (SMILES),Potency,"activity change, negative = inhibition"
O=C(NNC(=O)c1cccc(S(=O)(=O)Nc2ccccc2F)c1)c1ccncc1,"inconclusive: 44.7 µM [inhibitor, partial curve, poor fit]",–
CCn1cc(/C=C/c2cc[n+](C)cc2)c2ccccc21,"inconclusive: 28.2 µM [inhibitor, partial curve, poor fit]",–
COc1ccc(C(=O)N[C@@H]2CCC[C@@H]2C(=O)NCCCOC(C)C)cc1,–,inactive: 36.7%
N#Cc1ccccc1OCC(=O)NC1(C#N)CCCC1,–,inactive: 0.428%
CCCN(C(=O)Cn1cnc2sc(C)c(S(=O)(=O)N3CCN(c4ncccn4)CC3)c2c1=O)c1cccc(C)c1,"inconclusive: 22.4 µM [inhibitor, partial curve, poor fit]",–
O=C(O)COc1ccc(/C=N/NC(=O)c2ccc(-c3csc(Nc4ccc(Cl)cc4)n3)cc2)cc1,"inconclusive: 56.2 µM [inhibitor, partial curve, poor fit]",–
CC(=O)c1sc2nc(CSc3nncn3C)[nH]c(=O)c2c1C,–,inactive: -22.1%
COc1ccc(-n2c(CCc3ccccc3)n[nH]c2=S)cc1,"inconclusive: 44.7 µM [inhibitor, partial curve, poor fit]",–
CN(C)C(=O)CN(C)C(=O)Cn1c(=O)c2c(ncn2Cc2ccco2)n(Cc2ccccc2)c1=O,"inconclusive: 100 µM [inhibitor, single point]",–
CC(C)C(OC(=O)c1cccs1)C(=O)NCc1ccc(F)cc1 (stereo not given),"inconclusive: 5.62 µM [inhibitor, full curve, poor fit]",–
O=[N+]([O-])c1c(Nc2cccc(Cl)c2Cl)cc(Cl)c2nonc12,active: 15.8 µM,–
CC(C)CNC(=O)c1ccc2c(c1)NC(C)(CNc1ccccc1)CO2 (stereo not given),–,inactive: -10.6% [at 176 µM]
CC1CC(C(C)(C)C(C)C)CC/C1=N\O (stereo not given),"inconclusive: 7.08 µM [inhibitor, partial curve, poor fit]",–
O=C(O)C(c1c[nH]c2ccc(Br)cc12)N1CCN(Cc2ccc(Cl)cc2Cl)CC1 (stereo not given),"inconclusive: 44.7 µM [inhibitor, partial curve, poor fit]",–
Cc1cccc(CNc2ncnc3ccc(-c4ccc5c(c4)OCCO5)cc23)c1,active: 50.1 µM,–
Cc1cc(C)cc(N2CCN(Cc3cn(-c4ccccc4)nn3)CC2=O)c1,–,inactive: -3.84%
Cc1onc(-c2c(Cl)cccc2Cl)c1C(=O)N1CCCc2ccccc21,–,inactive: 14.4%
O=C(CSc1nc(=O)n(Cc2ccncc2)c2c1CCC2)N1CCCCC1,–,inactive: -14.9%
O=C(CN1CCc2ccccc2C1)Nc1ccccc1C(F)(F)F,"inconclusive: 0.398 µM [inhibitor, full curve, poor fit]",–
COC(=O)c1ccc(F)c(NC(=O)CCc2c(C)nc(C)[nH]c2=O)c1,"inconclusive: 22.4 µM [inhibitor, partial curve, poor fit]",–
CCCNc1nc(OCC(F)(F)F)nc(OCC(F)(F)F)n1,–,inactive: 16.6%
Cc1ccc(F)cc1NC(=S)NCc1ccccc1,"inconclusive: 3.98 µM [inhibitor, full curve, poor fit]",–
COCC1=C(C(=O)OC)C(c2ccco2)n2ncnc2N1 (stereo not given),"inconclusive: 31.6 µM [inhibitor, single point]",–
O=C(c1cccs1)N1CCN(Cc2ccccc2[N+](=O)[O-])CC1,"inconclusive: 1.26 µM [inhibitor, full curve]",–

# Whole records, quoted from the list:
# O=C(O)C(c1c[nH]c2ccc(Br)cc12)N1CCN(Cc2ccc(Cl)cc2Cl)CC1 (stereo not given) as listed: Potency: inconclusive: 44.7 µM [inhibitor, partial curve, poor fit]
# CC(C)CNC(=O)c1ccc2c(c1)NC(C)(CNc1ccccc1)CO2 (stereo not given) as listed: activity change, negative = inhibition: inactive: -10.6% [at 176 µM]

# (further entries)

Structure (SMILES),Potency,"activity change, negative = inhibition"
NCC(=O)N1CCC(n2nccc2NC(=O)Nc2ccccc2Cl)CC1,–,inactive: 0.317%
CCC(C)NC(=O)Cn1c(C)ccc(NC(=O)Nc2ccc(C)cc2)c1=O (stereo not given),"inconclusive: 50.1 µM [inhibitor, partial curve, poor fit]",–
O=C(c1cccc(F)c1F)N1CCOc2ccc(CN3CCN(c4ccccn4)CC3)cc2C1,–,inactive: 0.23%
CCc1cc2cc(C(=O)N3CCN(c4ccccc4)CC3)sc2s1,–,inactive: 6.33%
COC(=O)c1cc(O)cc(OC)c1Oc1cc(C)cc(O)c1C(=O)O,"inconclusive: 39.8 µM [inhibitor, partial curve, poor fit]",–
CCCc1nnc(NC(=O)CN2CCN(C)CC2)s1,"inconclusive: 1.58 µM [inhibitor, full curve, poor fit]",–
COc1ccccc1N1CCN(Cc2cc(OC)c3c(c2)OCO3)CC1,"inconclusive: 31.6 µM [inhibitor, partial curve, poor fit]",–
COCCn1c(SCc2ccccc2C#N)nnc1-c1ccc(Cl)cc1,–,inactive: -33.7%
O=C1NC[C@@H](CCCCN2CCN(CC3CCCCC3)C(=O)C2=O)N(CC2CCCCC2)C1=O,"inconclusive: 2.82 µM [inhibitor, full curve, poor fit]",–
CC(C)NC(=S)N/N=C/c1cc(Br)ccc1O,"inconclusive: 44.7 µM [inhibitor, partial curve, poor fit]",–
Cc1ccc(-n2ncc3c(=O)[nH]c(SCC(=O)N4CC(=O)Nc5ccccc54)nc32)cc1,–,inactive: 22.4%
CCOC(=O)N1CCN(CC(O)COc2ccc(CC)cc2)CC1 (stereo not given),"inconclusive: 44.7 µM [inhibitor, partial curve, poor fit]",–
COc1ccc(OC)c(/C=C/C(=O)Oc2ccc(C(C)=O)cc2)c1,–,inactive: 2.27%
CSCCC(NC(=O)c1cccc(C)c1)C(=O)NCc1cccs1 (stereo not given),"inconclusive: 100 µM [inhibitor, single point]",–
COc1ccc(C(=O)Nc2nc3nc(C)c(Cl)c(=O)n3[nH]2)cc1,"inconclusive: 1.26 µM [inhibitor, full curve, poor fit]",–
O=C(N/N=C/c1cccc(Oc2ccccc2)c1)c1cccc(Br)c1,–,inactive: 2.68%
CCOC(=O)C1CCCN(C(=O)CN2C(=O)/C(=C/c3ccc(OC)cc3)Oc3ccccc32)C1 (stereo not given),–,inactive: -17%
O=C(NCc1ccccc1)N1CCN(c2ccccc2)CC1,"inconclusive: 28.2 µM [inhibitor, single point]",–
COc1ccc2cnn(CC(=O)N(Cc3ccccc3)Cc3ccccc3)c(=O)c2c1OC,–,inactive: 25.1%
O=C(CSc1nc2ccccc2o1)OCC(=O)c1ccc(-c2ccccc2)cc1,"inconclusive: 0.708 µM [inhibitor, full curve, poor fit]",–
Cc1ccc2nc(-c3ccncc3)cc(C(=O)O)c2c1,"inconclusive: 7.94 µM [inhibitor, full curve, poor fit]",–
CC(=O)C1=C(O)C(=O)N(C)C1c1ccccc1[N+](=O)[O-] (stereo not given),"inconclusive: 141 µM [inhibitor, partial curve, poor fit]",–
COc1ccc(NC(=O)CC2C(=O)N(c3cccc(OC)c3)C(=O)N2Cc2cccnc2)cc1 (stereo not given),–,inactive: -15.5%
CN(C)S(=O)(=O)c1ccc(Cl)c(C(=O)Nc2cccc3ncccc23)c1,"inconclusive: 126 µM [inhibitor, single point]",–

Structure (SMILES),Potency,"activity change, negative = inhibition"
COC(=O)c1ccc(NC(=S)NC(=O)c2cc(-c3ccccc3)nc3ccccc23)cc1,"inconclusive: 28.2 µM [inhibitor, single point]",–
COC(=O)c1ccc2c(c1)C(=O)/C(=C/c1ccc(O)cc1)O2,–,inactive: -17%
CCOC(=O)c1ccc(NC(=O)c2nsc3ccccc23)cc1,active: 44.7 µM,–
COc1ccc(/C=C/C(=O)c2cccc(N)c2)cc1,–,inactive: -0.837%
O=C(Nc1ccc(Cl)c(Cl)c1)N(CCCN1CCOCC1)Cc1cccs1,–,inactive: -17.7%
COc1cccc(C(N)=O)c1OCc1ccc(SC)cc1,"inconclusive: 100 µM [inhibitor, single point]",–
Cc1ccc(S(=O)(=O)Nc2ccc(C(=O)N3CCOCC3)cc2)cc1,–,inactive: 19.5%
CCC(CC)n1c(=O)n(CCCc2cccnc2)c2cc(C(=O)O)cnc21,"inconclusive: 3.55 µM [inhibitor, full curve]",–
C#CCNC(=O)c1nc(-c2ccc(Cl)cc2)c2ccccn12,"inconclusive: 28.2 µM [inhibitor, partial curve, poor fit]",–
COc1ccccc1NC(=O)Nc1nc(CC(=O)NCc2c(F)cccc2F)cs1,–,inactive: -6.79%
CC(C)c1ccc(-c2csc(Nc3ccc(S(N)(=O)=O)cc3)n2)cc1,"inconclusive: 44.7 µM [inhibitor, partial curve, poor fit]",–
Cc1ccc(C)c(C(C)NC(=S)NC2CCCCC2)c1 (stereo not given),active: 44.7 µM,–
CCOC(=O)c1cc(S(=O)(=O)N2CCN(c3cc(Cl)ccc3C)CC2)[nH]n1,"inconclusive: 56.2 µM [inhibitor, partial curve, poor fit]",–
Cc1ccc(NC(=O)CC2SCCNC2=O)cc1[N+](=O)[O-] (stereo not given),"inconclusive: 126 µM [inhibitor, single point]",–
O=C(CC1CCCC1)Nc1cc(S(=O)(=O)N2CCOCC2)ccc1O,"inconclusive: 50.1 µM [inhibitor, partial curve, poor fit]",–
CCc1ccc(C(=O)NCCn2ccn3nc(-c4ccc(F)cc4)cc3c2=O)cc1,"inconclusive: 44.7 µM [inhibitor, partial curve]",–
CN(C)C(=O)c1cc(C(=O)Cc2ccccc2)c[nH]1,"inconclusive: 0.224 µM [inhibitor, full curve, poor fit]",–
COc1cccc(-c2nnc(SCC3CCOCO3)n2-c2ccc(C)cc2)c1 (stereo not given),"inconclusive: 50.1 µM [inhibitor, single point]",–
Cn1c(=O)n([C@H]2CCCN(C(=O)Nc3ccc(F)cc3F)C2)c2ncccc21,–,inactive: 36.5%
CCOC(=O)c1sc(Nc2ccc(C(C)=O)cc2)nc1C,–,inconclusive: -30.5% [inhibitor]
CCC1=NN2C(=N)/C(=C\c3ccc(SCc4ccco4)o3)C(=O)N=C2S1,"inconclusive: 0.316 µM [inhibitor, full curve, poor fit]",–
C=CCNc1nc(Nc2cc(Cl)ccc2OC)nc(OC)n1,–,inactive: 28%

# From PubChem BioAssay AID1671190 (National Center for Advancing Translational Sciences (NCATS), 2021)
